According to the supplement of paper PMC12819154, “High-throughput peptide-centric local stability assay extends protein–ligand identification to membrane proteins, tissues and bacteria” (Nature Structural & Molecular Biology, 2025):
The other results are listed elsewhere or left out. Most entries show no effect beyond the scatter of the controls.

By UniProt entry, the sequences of proteins in these tests, tags left out. Where a name states a change or a piece, a line headed by the entry shows the natural chain unless it says otherwise.
UniProt P54729: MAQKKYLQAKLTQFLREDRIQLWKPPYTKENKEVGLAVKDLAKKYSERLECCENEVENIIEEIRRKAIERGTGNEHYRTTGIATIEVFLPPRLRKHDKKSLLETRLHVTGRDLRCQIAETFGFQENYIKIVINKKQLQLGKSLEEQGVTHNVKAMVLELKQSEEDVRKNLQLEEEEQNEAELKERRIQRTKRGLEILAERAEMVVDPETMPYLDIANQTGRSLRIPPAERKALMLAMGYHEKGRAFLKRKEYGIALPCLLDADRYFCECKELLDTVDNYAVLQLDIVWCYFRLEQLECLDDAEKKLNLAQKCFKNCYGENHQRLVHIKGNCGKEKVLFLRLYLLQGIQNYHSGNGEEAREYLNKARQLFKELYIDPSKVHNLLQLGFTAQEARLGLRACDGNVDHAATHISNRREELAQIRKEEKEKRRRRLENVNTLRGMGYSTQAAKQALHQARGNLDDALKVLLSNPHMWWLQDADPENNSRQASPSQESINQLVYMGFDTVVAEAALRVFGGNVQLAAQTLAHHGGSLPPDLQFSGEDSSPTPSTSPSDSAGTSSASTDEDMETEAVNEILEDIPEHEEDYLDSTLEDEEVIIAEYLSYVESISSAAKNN
UniProt P56383: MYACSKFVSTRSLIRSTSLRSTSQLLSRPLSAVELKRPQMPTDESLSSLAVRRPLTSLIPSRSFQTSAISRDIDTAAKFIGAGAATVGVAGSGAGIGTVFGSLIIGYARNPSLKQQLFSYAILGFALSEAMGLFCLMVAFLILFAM
UniProt P56389: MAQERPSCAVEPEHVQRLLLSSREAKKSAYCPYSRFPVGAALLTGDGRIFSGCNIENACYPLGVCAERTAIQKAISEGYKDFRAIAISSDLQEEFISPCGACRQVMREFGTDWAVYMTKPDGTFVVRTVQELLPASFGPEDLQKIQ
UniProt P60670: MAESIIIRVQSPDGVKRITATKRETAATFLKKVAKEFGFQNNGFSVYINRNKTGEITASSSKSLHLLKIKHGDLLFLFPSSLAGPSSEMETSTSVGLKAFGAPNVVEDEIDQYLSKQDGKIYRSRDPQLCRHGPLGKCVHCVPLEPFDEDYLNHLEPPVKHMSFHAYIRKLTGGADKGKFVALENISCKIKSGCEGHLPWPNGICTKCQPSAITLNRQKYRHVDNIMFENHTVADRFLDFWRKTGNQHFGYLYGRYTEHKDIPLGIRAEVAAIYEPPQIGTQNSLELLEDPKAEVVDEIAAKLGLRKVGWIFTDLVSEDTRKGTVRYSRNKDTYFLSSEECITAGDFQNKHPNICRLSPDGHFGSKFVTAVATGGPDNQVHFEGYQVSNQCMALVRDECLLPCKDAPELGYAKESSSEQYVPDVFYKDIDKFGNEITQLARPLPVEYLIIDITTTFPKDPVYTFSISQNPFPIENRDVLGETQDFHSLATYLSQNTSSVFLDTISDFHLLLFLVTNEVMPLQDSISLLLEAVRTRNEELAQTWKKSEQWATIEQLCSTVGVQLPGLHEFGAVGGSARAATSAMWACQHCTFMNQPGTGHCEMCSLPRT
UniProt P59913: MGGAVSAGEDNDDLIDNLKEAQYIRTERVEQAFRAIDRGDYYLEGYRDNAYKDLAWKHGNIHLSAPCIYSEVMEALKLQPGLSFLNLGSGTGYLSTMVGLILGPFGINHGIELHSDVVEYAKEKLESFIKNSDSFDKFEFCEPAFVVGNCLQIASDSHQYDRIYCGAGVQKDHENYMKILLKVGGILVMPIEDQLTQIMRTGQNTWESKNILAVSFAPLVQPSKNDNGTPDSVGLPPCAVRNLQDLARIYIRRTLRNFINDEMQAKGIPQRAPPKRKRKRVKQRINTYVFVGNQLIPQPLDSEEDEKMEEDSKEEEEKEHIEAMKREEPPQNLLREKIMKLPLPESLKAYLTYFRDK
UniProt P60122, whole entry: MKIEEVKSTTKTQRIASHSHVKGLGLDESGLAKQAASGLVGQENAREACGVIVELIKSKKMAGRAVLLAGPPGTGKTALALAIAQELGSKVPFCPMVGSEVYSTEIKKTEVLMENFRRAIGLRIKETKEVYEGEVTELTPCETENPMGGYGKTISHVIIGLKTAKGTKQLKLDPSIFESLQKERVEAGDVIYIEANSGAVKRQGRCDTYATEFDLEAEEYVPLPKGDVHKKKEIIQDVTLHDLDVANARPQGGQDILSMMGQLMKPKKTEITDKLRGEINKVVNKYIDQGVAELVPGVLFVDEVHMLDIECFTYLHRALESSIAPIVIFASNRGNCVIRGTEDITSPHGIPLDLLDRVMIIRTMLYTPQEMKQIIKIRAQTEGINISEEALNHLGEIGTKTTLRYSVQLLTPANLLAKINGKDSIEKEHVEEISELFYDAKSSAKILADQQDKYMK
UniProt P54103: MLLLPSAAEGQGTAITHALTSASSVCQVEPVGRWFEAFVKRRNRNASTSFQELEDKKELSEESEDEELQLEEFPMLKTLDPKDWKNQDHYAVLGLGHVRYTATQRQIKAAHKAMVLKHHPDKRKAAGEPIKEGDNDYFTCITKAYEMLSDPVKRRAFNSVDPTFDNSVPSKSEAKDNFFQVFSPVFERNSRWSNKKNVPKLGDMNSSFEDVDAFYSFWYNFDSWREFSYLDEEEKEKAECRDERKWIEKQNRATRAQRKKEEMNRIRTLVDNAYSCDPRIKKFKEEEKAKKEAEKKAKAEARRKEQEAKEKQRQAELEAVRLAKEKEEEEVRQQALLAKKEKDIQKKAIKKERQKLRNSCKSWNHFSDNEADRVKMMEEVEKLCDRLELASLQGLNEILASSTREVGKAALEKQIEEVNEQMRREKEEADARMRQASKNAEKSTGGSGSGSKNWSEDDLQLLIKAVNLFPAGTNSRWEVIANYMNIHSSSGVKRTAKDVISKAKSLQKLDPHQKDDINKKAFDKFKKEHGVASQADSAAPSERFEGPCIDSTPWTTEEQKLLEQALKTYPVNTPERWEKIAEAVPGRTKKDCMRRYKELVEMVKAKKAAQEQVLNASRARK
UniProt P57746, whole entry: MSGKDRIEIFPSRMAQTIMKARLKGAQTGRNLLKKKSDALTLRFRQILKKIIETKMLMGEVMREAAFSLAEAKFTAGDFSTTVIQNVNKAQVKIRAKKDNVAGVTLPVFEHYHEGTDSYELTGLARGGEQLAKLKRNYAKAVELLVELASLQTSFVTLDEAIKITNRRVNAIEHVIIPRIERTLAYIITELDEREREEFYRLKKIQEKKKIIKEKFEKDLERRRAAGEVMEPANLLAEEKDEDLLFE
UniProt P58389: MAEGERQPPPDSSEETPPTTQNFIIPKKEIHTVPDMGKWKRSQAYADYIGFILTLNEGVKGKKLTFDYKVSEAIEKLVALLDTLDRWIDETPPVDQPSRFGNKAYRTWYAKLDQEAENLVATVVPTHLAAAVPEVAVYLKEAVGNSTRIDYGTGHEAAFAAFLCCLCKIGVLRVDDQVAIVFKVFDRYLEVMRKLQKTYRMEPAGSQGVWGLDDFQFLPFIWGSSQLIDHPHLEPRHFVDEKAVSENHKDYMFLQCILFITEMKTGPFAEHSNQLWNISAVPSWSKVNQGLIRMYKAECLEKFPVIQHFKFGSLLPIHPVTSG
UniProt P61406: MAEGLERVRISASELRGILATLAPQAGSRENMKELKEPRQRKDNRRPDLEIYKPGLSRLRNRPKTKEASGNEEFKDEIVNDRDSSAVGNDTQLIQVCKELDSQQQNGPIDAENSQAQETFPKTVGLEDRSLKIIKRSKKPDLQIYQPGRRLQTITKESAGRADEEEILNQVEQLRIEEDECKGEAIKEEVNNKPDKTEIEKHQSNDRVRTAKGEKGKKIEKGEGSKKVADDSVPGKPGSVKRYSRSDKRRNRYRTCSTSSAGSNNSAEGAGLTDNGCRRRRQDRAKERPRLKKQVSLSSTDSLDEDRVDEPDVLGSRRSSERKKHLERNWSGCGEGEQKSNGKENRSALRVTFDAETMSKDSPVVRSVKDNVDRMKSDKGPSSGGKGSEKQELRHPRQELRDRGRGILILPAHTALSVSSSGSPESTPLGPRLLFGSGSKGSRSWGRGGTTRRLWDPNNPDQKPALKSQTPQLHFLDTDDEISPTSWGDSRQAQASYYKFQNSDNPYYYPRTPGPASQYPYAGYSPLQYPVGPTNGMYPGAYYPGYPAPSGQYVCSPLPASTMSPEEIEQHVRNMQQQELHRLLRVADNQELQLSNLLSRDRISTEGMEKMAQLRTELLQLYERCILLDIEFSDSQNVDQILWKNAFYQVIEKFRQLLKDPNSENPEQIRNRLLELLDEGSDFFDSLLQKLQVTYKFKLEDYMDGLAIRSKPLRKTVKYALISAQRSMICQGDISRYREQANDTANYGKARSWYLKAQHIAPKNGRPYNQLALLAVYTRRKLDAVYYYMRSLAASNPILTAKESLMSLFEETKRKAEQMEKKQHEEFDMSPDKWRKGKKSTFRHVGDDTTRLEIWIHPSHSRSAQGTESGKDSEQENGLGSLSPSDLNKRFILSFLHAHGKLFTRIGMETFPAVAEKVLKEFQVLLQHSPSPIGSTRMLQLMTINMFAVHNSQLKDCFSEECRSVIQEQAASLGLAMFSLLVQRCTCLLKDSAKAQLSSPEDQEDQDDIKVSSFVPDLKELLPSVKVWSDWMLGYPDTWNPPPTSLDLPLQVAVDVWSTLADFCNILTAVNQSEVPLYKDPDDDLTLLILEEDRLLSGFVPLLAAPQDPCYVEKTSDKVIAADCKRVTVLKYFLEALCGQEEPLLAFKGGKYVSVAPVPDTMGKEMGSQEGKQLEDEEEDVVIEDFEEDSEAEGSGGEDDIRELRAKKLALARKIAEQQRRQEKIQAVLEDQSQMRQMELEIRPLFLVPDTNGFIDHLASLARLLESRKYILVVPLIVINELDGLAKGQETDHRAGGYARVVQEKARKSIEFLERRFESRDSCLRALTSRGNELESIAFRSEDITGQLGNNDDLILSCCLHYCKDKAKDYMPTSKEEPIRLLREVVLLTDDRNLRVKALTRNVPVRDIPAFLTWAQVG
UniProt P59108: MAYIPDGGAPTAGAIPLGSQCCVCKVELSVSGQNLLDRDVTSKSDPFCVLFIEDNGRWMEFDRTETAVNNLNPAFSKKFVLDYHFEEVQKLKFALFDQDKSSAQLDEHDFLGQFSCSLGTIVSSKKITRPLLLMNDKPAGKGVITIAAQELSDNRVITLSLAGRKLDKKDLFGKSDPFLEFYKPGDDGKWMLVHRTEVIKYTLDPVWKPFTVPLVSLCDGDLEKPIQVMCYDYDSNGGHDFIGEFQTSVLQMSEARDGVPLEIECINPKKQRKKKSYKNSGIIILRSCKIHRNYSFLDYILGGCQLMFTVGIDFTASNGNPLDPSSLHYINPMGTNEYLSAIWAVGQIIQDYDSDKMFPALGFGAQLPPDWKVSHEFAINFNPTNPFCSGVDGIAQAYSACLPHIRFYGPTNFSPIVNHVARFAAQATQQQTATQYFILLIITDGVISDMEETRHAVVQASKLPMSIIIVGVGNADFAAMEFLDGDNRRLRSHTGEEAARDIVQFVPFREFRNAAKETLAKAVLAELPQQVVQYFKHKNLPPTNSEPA

Each target was assayed with CN[C@@H]1C[C@H]2O[C@@](C)([C@@H]1OC)n1c3ccccc3c3c4c(c5c6ccccc6n2c5c31)C(=O)NC4 [staurosporine] (assay: log2 fold change of tryptic peptide abundance, ligand vs vehicle (limited proteolysis) (log2 ratio); higher = more trypsin-susceptible (destabilized)). Settings: ligand concentration: 20 uM; sample: mouse liver crude lysate; replicate design: treated separately.

How did the log2 fold change turn out when “UniProt P54729 (peptide sequence: IQLWKPPYTKENK, peptide start residue: 20)” was run?
Its log2 fold change is -0.381.

With “UniProt P56383 (peptide sequence: STSQLLSRPLSAVELK, peptide start residue: 21)” as the target, how does the log2 fold change read?
The log2 fold change was 0.165.

With “UniProt P56389 (peptide sequence: KSAYCPYSR, peptide start residue: 27)” as the target, how does the log2 fold change read?
Its log2 fold change is -0.477.

How did the log2 fold change turn out when “UniProt P60670 (peptide sequence: LSPDGHFGSK, peptide start residue: 357)” was run?
The log2 fold change was -0.291.

“UniProt P59913 (peptide sequence: GIPQRAPPK, peptide start residue: 267)” was tested. Which log2 fold change did it give?
Its log2 fold change is -0.438.

Which log2 fold change does the source give for “UniProt P62983 (peptide sequence: YYKVDENGK, peptide start residue: 105)” here?
The log2 fold change was 0.0768.

For “UniProt P60122 (peptide sequence: MKIEEVK, peptide start residue: 1)”, which log2 fold change is on record?
Its log2 fold change is -0.185.

For “UniProt P54103 (peptide sequence: AFDKFKK, peptide start residue: 521)”, which log2 fold change is on record?
Its log2 fold change is -0.401.

How did the log2 fold change turn out when “UniProt P57746 (peptide sequence: VNAIEHVIIPR, peptide start residue: 169)” was run?
Its log2 fold change is 0.587.

With “UniProt P58389 (peptide sequence: LVALLDTLDR, peptide start residue: 77)” as the target, how does the log2 fold change read?
Its log2 fold change is -0.279.

For “UniProt P61406 (peptide sequence: VADDSVPGKPGSVKR, peptide start residue: 228)”, which log2 fold change is on record?
The log2 fold change was 0.462.

With “UniProt P59108 (peptide sequence: VITLSLAGR, peptide start residue: 156)” as the target, how does the log2 fold change read?
Its log2 fold change is 0.324.
